# Assay results as given in the supplement of paper PMC10689618.
# Counter-ions that a name gives are not always drawn. The list shows a part of the results. Repeats are few or missing, and single values can be far off.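 Labelled rat cortical synaptosomes were engulfed by primary human fetal astrocytes. Engulfment equaled a red/green ratio, corrected for calcein live-cell signal and normalized to the plate median. Compounds were toxic when calcein dropped over 30%, and reduced phagocytosis when below 70% of the median above 5 µM.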
# What was measured:
# Conditions in all cases: 24 h
# Human fetal astrocytes [1] = assay: loss of total cells relative to no-compound high-control median (toxicity); higher = more toxic (fewer cells)
# Human fetal astrocytes [2] = assay: synaptosome phagocytosis (pHrodo/calcein intensity ratio) relative to plate median of data wells; higher = more phagocytosis
# Human fetal astrocytes [3] = assay: loss of total cells relative to no-compound high-control median (toxicity); higher = more toxic (fewer cells); remark: listed apart in the source
structure (smiles),measurement,setting,value
"NC(Cn1oc(=O)[nH]c1=O)C(=O)O (single isomer, unassigned; (+)) [(+)-Quisqualic acid]",loss of total cells,Human fetal astrocytes [1]; 1.39 µM,-15.2%
same,loss of total cells,Human fetal astrocytes [1]; 2.78 µM,-17.7%
same,loss of total cells,Human fetal astrocytes [1]; 5.56 µM,-18.5%
same,loss of total cells,Human fetal astrocytes [1]; 11.11 µM,-23.4%
same,loss of total cells,Human fetal astrocytes [1]; 22.22 µM,-36.2%
same,synaptosome phagocytosis,Human fetal astrocytes [2]; 1.39 µM,84%
same,synaptosome phagocytosis,Human fetal astrocytes [2]; 2.78 µM,75.5%
same,synaptosome phagocytosis,Human fetal astrocytes [2]; 5.56 µM,74.4%
same,synaptosome phagocytosis,Human fetal astrocytes [2]; 11.11 µM,100%
same,synaptosome phagocytosis,Human fetal astrocytes [2]; 22.22 µM,137%
O=C1CCCN1CC#CCN1CCCC1 [Oxotremorine sesquifumarate salt],loss of total cells,Human fetal astrocytes [1]; 1.39 µM,-4.3%
same,loss of total cells,Human fetal astrocytes [1]; 2.78 µM,14.9%
same,loss of total cells,Human fetal astrocytes [1]; 5.56 µM,3.3%
same,loss of total cells,Human fetal astrocytes [1]; 11.11 µM,31.4%
same,loss of total cells,Human fetal astrocytes [1]; 22.22 µM,8.4%
same,synaptosome phagocytosis,Human fetal astrocytes [2]; 1.39 µM,117%
same,synaptosome phagocytosis,Human fetal astrocytes [2]; 2.78 µM,126%
same,synaptosome phagocytosis,Human fetal astrocytes [2]; 5.56 µM,113%
same,synaptosome phagocytosis,Human fetal astrocytes [2]; 11.11 µM,129%
same,synaptosome phagocytosis,Human fetal astrocytes [2]; 22.22 µM,102%
c1ccc(C2CC2)c(OCC2=NCCN2)c1 [Cirazoline hydrochloride],loss of total cells,Human fetal astrocytes [1]; 1.39 µM,-4.6%
same,loss of total cells,Human fetal astrocytes [1]; 2.78 µM,3.4%
same,loss of total cells,Human fetal astrocytes [1]; 5.56 µM,9.9%
same,loss of total cells,Human fetal astrocytes [1]; 11.11 µM,-12.1%
same,loss of total cells,Human fetal astrocytes [1]; 22.22 µM,35.2%
same,synaptosome phagocytosis,Human fetal astrocytes [2]; 1.39 µM,119%
same,synaptosome phagocytosis,Human fetal astrocytes [2]; 2.78 µM,103%
same,synaptosome phagocytosis,Human fetal astrocytes [2]; 5.56 µM,100%
same,synaptosome phagocytosis,Human fetal astrocytes [2]; 11.11 µM,111%
same,synaptosome phagocytosis,Human fetal astrocytes [2]; 22.22 µM,57.7%
CC(=O)Oc1ccc(Cl)c2cccnc12,loss of total cells,Human fetal astrocytes [3]; 1.39 µM,-9.8%
same,loss of total cells,Human fetal astrocytes [3]; 2.78 µM,3.2%
same,loss of total cells,Human fetal astrocytes [3]; 5.56 µM,29.3%
same,loss of total cells,Human fetal astrocytes [3]; 11.11 µM,43.9%
same,loss of total cells,Human fetal astrocytes [3]; 22.22 µM,53.3%
"CCCC[N+]1(C)[C@@H]2C[C@@H](OC(=O)[C@H](CO)c3ccccc3)C[C@H]1[C@@H]1O[C@@H]12 (single isomer, unassigned; (-)) [(-)-Scopolamine,n-Butyl-, bromide]",loss of total cells,Human fetal astrocytes [1]; 1.39 µM,5.3%
same,loss of total cells,Human fetal astrocytes [1]; 2.78 µM,-23.7%
same,loss of total cells,Human fetal astrocytes [1]; 5.56 µM,-11.2%
same,loss of total cells,Human fetal astrocytes [1]; 11.11 µM,-21.1%
same,loss of total cells,Human fetal astrocytes [1]; 22.22 µM,-28.8%
same,synaptosome phagocytosis,Human fetal astrocytes [2]; 1.39 µM,109%
same,synaptosome phagocytosis,Human fetal astrocytes [2]; 2.78 µM,111%
same,synaptosome phagocytosis,Human fetal astrocytes [2]; 5.56 µM,87%
same,synaptosome phagocytosis,Human fetal astrocytes [2]; 11.11 µM,95.4%
same,synaptosome phagocytosis,Human fetal astrocytes [2]; 22.22 µM,105%
C=C(C)[C@@H]1[C@H]2OC(=O)[C@@H]1[C@]1(O)C[C@H]3O[C@]34C(=O)O[C@H]2[C@]14C,loss of total cells,Human fetal astrocytes [3]; 1.39 µM,6.9%
same,loss of total cells,Human fetal astrocytes [3]; 2.78 µM,18.4%
same,loss of total cells,Human fetal astrocytes [3]; 5.56 µM,6.5%
same,loss of total cells,Human fetal astrocytes [3]; 11.11 µM,11.3%
same,loss of total cells,Human fetal astrocytes [3]; 22.22 µM,17.4%
CN1CCc2cccc(Cl)c2CC1,loss of total cells,Human fetal astrocytes [1]; 1.39 µM,-12.7%
same,loss of total cells,Human fetal astrocytes [1]; 2.78 µM,-17.1%
same,loss of total cells,Human fetal astrocytes [1]; 5.56 µM,-6.7%
same,loss of total cells,Human fetal astrocytes [1]; 11.11 µM,-11.9%
same,loss of total cells,Human fetal astrocytes [1]; 22.22 µM,-18.9%
same,synaptosome phagocytosis,Human fetal astrocytes [2]; 1.39 µM,113%
same,synaptosome phagocytosis,Human fetal astrocytes [2]; 2.78 µM,96.5%
same,synaptosome phagocytosis,Human fetal astrocytes [2]; 5.56 µM,88%
same,synaptosome phagocytosis,Human fetal astrocytes [2]; 11.11 µM,94.5%
same,synaptosome phagocytosis,Human fetal astrocytes [2]; 22.22 µM,112%
C#CCN(C)[C@H](C)Cc1ccccc1 [R-(-)-Deprenyl hydrochloride],loss of total cells,Human fetal astrocytes [1]; 1.39 µM,-17.5%
same,loss of total cells,Human fetal astrocytes [1]; 2.78 µM,18.6%
same,loss of total cells,Human fetal astrocytes [1]; 5.56 µM,16.4%
same,loss of total cells,Human fetal astrocytes [1]; 11.11 µM,-6.7%
same,loss of total cells,Human fetal astrocytes [1]; 22.22 µM,27.1%
same,synaptosome phagocytosis,Human fetal astrocytes [2]; 1.39 µM,118%
same,synaptosome phagocytosis,Human fetal astrocytes [2]; 2.78 µM,116%
same,synaptosome phagocytosis,Human fetal astrocytes [2]; 5.56 µM,127%
same,synaptosome phagocytosis,Human fetal astrocytes [2]; 11.11 µM,109%
same,synaptosome phagocytosis,Human fetal astrocytes [2]; 22.22 µM,117%
N=C(NCCC[C@H](N)C(=O)O)N[N+](=O)[O-] [NG-Nitro-L-arginine],loss of total cells,Human fetal astrocytes [1]; 1.39 µM,-4.3%
same,loss of total cells,Human fetal astrocytes [1]; 2.78 µM,4.1%
same,loss of total cells,Human fetal astrocytes [1]; 5.56 µM,12.7%
same,loss of total cells,Human fetal astrocytes [1]; 11.11 µM,19%
same,loss of total cells,Human fetal astrocytes [1]; 22.22 µM,14%
same,synaptosome phagocytosis,Human fetal astrocytes [2]; 1.39 µM,105%
same,synaptosome phagocytosis,Human fetal astrocytes [2]; 2.78 µM,106%
same,synaptosome phagocytosis,Human fetal astrocytes [2]; 5.56 µM,121%
same,synaptosome phagocytosis,Human fetal astrocytes [2]; 11.11 µM,97%
same,synaptosome phagocytosis,Human fetal astrocytes [2]; 22.22 µM,145%
"CCCN1CCc2cc(O)cc3c2[C@H]1Cc1ccc(O)c(O)c1-3 [R(-)-2,10,11-Trihydroxy-N-propylnoraporphine hydrobromide]",loss of total cells,Human fetal astrocytes [1]; 1.39 µM,13%
same,loss of total cells,Human fetal astrocytes [1]; 2.78 µM,-5.1%
same,loss of total cells,Human fetal astrocytes [1]; 5.56 µM,4.9%
same,loss of total cells,Human fetal astrocytes [1]; 11.11 µM,4%
same,loss of total cells,Human fetal astrocytes [1]; 22.22 µM,20.8%
same,synaptosome phagocytosis,Human fetal astrocytes [2]; 1.39 µM,95.4%
same,synaptosome phagocytosis,Human fetal astrocytes [2]; 2.78 µM,79.3%
same,synaptosome phagocytosis,Human fetal astrocytes [2]; 5.56 µM,76.3%
same,synaptosome phagocytosis,Human fetal astrocytes [2]; 11.11 µM,76.3%
same,synaptosome phagocytosis,Human fetal astrocytes [2]; 22.22 µM,53.8%
COC(=O)N1CCN(C(=O)Cc2ccc(Cl)c(Cl)c2)C(CN2CCCC2)C1 (stereo not given),loss of total cells,Human fetal astrocytes [1]; 1.39 µM,7.9%
same,loss of total cells,Human fetal astrocytes [1]; 2.78 µM,-24.8%
same,loss of total cells,Human fetal astrocytes [1]; 5.56 µM,16.5%
same,loss of total cells,Human fetal astrocytes [1]; 11.11 µM,-17.5%
same,loss of total cells,Human fetal astrocytes [1]; 22.22 µM,13.6%
same,synaptosome phagocytosis,Human fetal astrocytes [2]; 1.39 µM,143%
same,synaptosome phagocytosis,Human fetal astrocytes [2]; 2.78 µM,111%
same,synaptosome phagocytosis,Human fetal astrocytes [2]; 5.56 µM,100%
same,synaptosome phagocytosis,Human fetal astrocytes [2]; 11.11 µM,97%
same,synaptosome phagocytosis,Human fetal astrocytes [2]; 22.22 µM,99.9%
